# Values of other authors as cited in paper PMC8284440, “Toward New Transmission-Blocking Combination Therapies: Pharmacokinetics of 10-Amino-Artemisinins and 11-Aza-Artemisinin and Comparison with Dihydroartemisinin and Artemether” (Antimicrobial Agents and Chemotherapy, 2021).
# Assays:
# [1] = tested on: P. falciparum K1; set-up: method as in ref 1 and 2 (supplement; main text 47, 48); settings: Table S1 resistance index; ref 1 and 2 (supplement; main text 47, 48); cited from earlier work
# [2] = tested on: P. falciparum W2; set-up: method as in ref 1 and 2 (supplement; main text 47, 48); settings: Table S1 resistance index beside W2; ref 1 and 2 (supplement; main text 47, 48); cited from earlier work
# [3] = tested on: P. falciparum K1; set-up: method as in ref 4 (supplement; main text 62); settings: Table S2; ref 4 (supplement; main text 62); cited from earlier work
# [4] = tested on: P. falciparum W2; set-up: method as in ref 4 (supplement; main text 62); settings: Table S2; ref 4 (supplement; main text 62); cited from earlier work
# [5] = tested on: early stage (>90% stage I-III) P. falciparum NF54 gametocytes; settings: Table S3; ref 1 and 2 (supplement; main text 47, 48); cited from earlier work
# [6] = tested on: late stage (>90% stage IV and V) P. falciparum NF54 gametocytes; settings: Table S3; ref 1 and 2 (supplement; main text 47, 48); cited from earlier work
# [7] = tested on: P. falciparum artemisinin-resistant clone ARC08-22 (4G), PfKI3 C580Y; settings: ref 2 (supplement; main text 48); cited from earlier work
# [8] = tested on: P. falciparum artemisinin-resistant clone PL08-009 (5C), PfKI3 C580Y; set-up: method as in ref 2 (supplement; main text 48); settings: ref 2 (supplement; main text 48); cited from earlier work
# [9] = tested on: Chinese hamster ovary (CHO) cells; settings: selectivity index; ref 1 and 2 (supplement; main text 47, 48); cited from earlier work
# [10] = tested on: HepG2; settings: ref 2 (supplement; main text 48); cited from earlier work
SMILES,RI (IC50 K1/IC50 NF54) [1],RI (W2 column) [2],Resistance Index RIa (IC50 K1/IC50 NF54) [3],Resistance Index RIb (IC50 W2/IC50 NF54) [4],Fold change preference ratio: EG to LG [5],Fold change preference ratio: LG to EG [6],RI (IC50 ARC08-22(4G)/IC50 W2) [7],RI (IC50 PL08-09 (5C)/IC50 W2) [8],SI (EC50 CHO/IC50 NF54) [9],SI (EC50 HepG2/IC50 P. berghei sporozoites) [10]
"C[C@H]1[C@@H](O)O[C@@H]2O[C@@]3(C)CC[C@H]4[C@H](C)CC[C@@H]1[C@@]24OO3 [DHA 2, dihydroartemisinin]",0.6,0.7,1.40,0.65,0.78,1.3,1.5,1.4,10039,–
"C[C@H]1[C@H](N2CCS(=O)(=O)CC2)O[C@@H]2O[C@@]3(C)CC[C@H]4[C@H](C)CC[C@@H]1[C@@]24OO3 [Artemisone 6, artemisone]",0.85,1.36,–,–,21.9,0.05,1.0,0.2,> 83000,> 1767
C[C@H]1[C@H](Nc2ccc(F)cc2)O[C@@H]2O[C@@]3(C)CC[C@H]4[C@H](C)CC[C@@H]1[C@@]24OO3 [Arylamine 8],0.48,2.55,–,–,0.4,2.3,1.2,3.3,371,–
"C[C@H]1[C@H](N2CCSCC2)O[C@@H]2O[C@@]3(C)CC[C@H]4[C@H](C)CC[C@@H]1[C@@]24OO3 [Artemiside 5, artemiside]",1.47,1.58,–,–,0.09,10.9,1.1,0.1,> 45166,> 308
C[C@H]1[C@H](N2CCN(C(=O)Nc3ccc(F)cc3)CC2)O[C@@H]2O[C@@]3(C)CC[C@H]4[C@H](C)CC[C@@H]1[C@@]24OO3 [Arylurea 10],0.65,0.9,–,–,0.47,2.59,–,–,–,–
"CO[C@H]1O[C@@H]2O[C@@]3(C)CC[C@H]4[C@H](C)CC[C@@H]([C@H]1C)[C@@]24OO3 [Artemether 3, artemether]",–,–,1.41,3.60,–,–,–,–,–,–
CCN(CC)CCCC(C)Nc1ccnc2cc(Cl)ccc12 (stereo not drawn) [Chloroquine],15.4,–,–,–,–,–,–,–,–,–
"C[C@@H]1CC[C@H]2[C@@H](C)C(=O)N[C@@H]3O[C@@]4(C)CC[C@@H]1[C@]32OO4 [11-Aza-artemisinin 11, 11-aza-artemisinin]",–,–,0.90,0.57,–,–,–,–,–,–
C[C@H]1[C@H](NS(N)(=O)=O)O[C@@H]2O[C@@]3(C)CC[C@H]4[C@H](C)CC[C@@H]1[C@@]24OO3 [Sulfamide 7],0.56,0.64,–,–,28.0,0.04,1.0,0.4,51376,–
